Like-named read-outs stand apart in the source and are kept apart here. Results are given in words; binding and its absence hold for the method and conditions named. Binding seen in cells or lysates may run through a third protein. For part of these data: Binding calls can cover weak binding; strength is not graded here. For part of these data: Tags and fused reporters may be left off the sequences shown.

Chains of the proteins cited; added tags and fusions are not shown. Lines headed by an entry give the natural chain unless they say otherwise; changes in a name come on top.
UniProt Q8CFN5: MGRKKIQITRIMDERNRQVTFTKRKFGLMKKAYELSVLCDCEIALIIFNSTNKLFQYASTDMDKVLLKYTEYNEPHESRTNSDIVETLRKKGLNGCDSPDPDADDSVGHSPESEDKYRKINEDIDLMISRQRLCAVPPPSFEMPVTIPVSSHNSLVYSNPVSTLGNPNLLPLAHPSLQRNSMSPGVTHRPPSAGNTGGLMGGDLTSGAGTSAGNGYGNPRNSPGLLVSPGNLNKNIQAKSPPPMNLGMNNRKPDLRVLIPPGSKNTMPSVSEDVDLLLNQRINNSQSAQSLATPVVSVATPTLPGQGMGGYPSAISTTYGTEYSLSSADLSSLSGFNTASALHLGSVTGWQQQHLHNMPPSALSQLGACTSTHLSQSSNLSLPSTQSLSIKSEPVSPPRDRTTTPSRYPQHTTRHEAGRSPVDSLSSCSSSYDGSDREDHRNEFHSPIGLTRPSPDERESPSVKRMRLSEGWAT
UniProt Q02650: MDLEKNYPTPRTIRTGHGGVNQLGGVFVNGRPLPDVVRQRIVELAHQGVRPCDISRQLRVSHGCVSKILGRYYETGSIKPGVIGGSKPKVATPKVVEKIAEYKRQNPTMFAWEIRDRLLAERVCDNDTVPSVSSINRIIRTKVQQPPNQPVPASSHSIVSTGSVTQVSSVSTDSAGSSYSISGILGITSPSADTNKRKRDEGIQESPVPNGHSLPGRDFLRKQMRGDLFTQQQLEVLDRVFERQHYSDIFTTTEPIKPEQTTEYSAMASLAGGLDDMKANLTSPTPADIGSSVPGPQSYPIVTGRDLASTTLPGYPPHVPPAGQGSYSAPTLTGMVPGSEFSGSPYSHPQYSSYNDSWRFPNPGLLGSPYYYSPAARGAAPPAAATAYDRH

The target of assay [1] is T1, Myc-tagged EBF1 (early B cell factor-1) (UniProt Q07802).
T1 sequence: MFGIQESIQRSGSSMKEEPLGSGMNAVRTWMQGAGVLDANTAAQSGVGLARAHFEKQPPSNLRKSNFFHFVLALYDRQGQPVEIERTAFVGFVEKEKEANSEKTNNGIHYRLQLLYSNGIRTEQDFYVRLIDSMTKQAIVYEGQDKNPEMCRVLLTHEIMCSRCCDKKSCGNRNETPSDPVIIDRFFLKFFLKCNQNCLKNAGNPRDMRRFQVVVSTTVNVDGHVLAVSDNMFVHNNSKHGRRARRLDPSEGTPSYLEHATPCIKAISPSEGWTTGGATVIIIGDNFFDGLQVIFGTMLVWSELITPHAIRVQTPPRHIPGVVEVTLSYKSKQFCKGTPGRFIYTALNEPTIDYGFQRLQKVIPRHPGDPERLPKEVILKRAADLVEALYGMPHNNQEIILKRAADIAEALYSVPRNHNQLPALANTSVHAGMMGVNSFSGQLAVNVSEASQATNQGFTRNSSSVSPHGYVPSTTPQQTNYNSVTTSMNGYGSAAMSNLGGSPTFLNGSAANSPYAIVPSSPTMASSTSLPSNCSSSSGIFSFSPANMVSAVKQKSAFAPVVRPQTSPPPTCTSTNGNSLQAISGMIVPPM
Nature of the assay: co-IP; 293T cells co-transfected with FLAG-tagged WT, EED or AAA MEF2C and Myc-tagged EBF1; Myc-IP (EBF1 as bait) blotted with FLAG antibody (S1C Fig).

Assay [2] addresses FLAG-tagged phosphorylation-deficient MEF2C (AAA MEF2C) (UniProt Q8CFN5). The experiment in a line: co-IP; 293T cells co-transfected; lysis in 50mM HEPES, 140mM NaCl, 1mM EDTA, 0.5% Triton-X, 0.5% sodium deoxycholate; overnight IP with anti-FLAG M2 (MEF2C as bait); washed with high-salt lysis buffer (500mM NaCl); blotted with anti-Myc or anti-V5; for WT MEF2C and EBF1 also with benzonase treatment, which did not prevent co-IP.

Assay [3] concerns the target FLAG-tagged phosphomimetic MEF2C (EED-MEF2C) (UniProt Q8CFN5). The assay is described as above.
Assay [4] has as its target FLAG-tagged phosphorylation-deficient MEF2C (AAA MEF2C) (UniProt Q8CFN5). The assay is described as above. This is another data set of the same source.
In assay [5] the target is FLAG-tagged phosphomimetic MEF2C (EED-MEF2C) (UniProt Q8CFN5). Described as above. This is another data set of the same source.

As to “FLAG-tagged phosphomimetic MEF2C (EED-MEF2C) (from UniProt Q8CFN5-5)”, in assay [1], the binding result is given as “binds”.

As to “FLAG-tagged phosphorylation-deficient MEF2C (AAA MEF2C) (from UniProt Q8CFN5-5)”, the binding result in assay [1] is “binds”.

Take “Myc-tagged E12 (E2A isoform) (from UniProt E9PWE2 1-653)”: the binding entry in assay [2] and in assay [3] was “no binding” throughout.

Take “Myc-tagged PAX5 (from UniProt Q02650 1-391)”: in assay [3], the binding result was “no binding”.

B1: Myc-tagged EBF1 (early B cell factor-1) (protein, UniProt Q07802 1-591)
chain: MFGIQESIQRSGSSMKEEPLGSGMNAVRTWMQGAGVLDANTAAQSGVGLARAHFEKQPPSNLRKSNFFHFVLALYDRQGQPVEIERTAFVGFVEKEKEANSEKTNNGIHYRLQLLYSNGIRTEQDFYVRLIDSMTKQAIVYEGQDKNPEMCRVLLTHEIMCSRCCDKKSCGNRNETPSDPVIIDRFFLKFFLKCNQNCLKNAGNPRDMRRFQVVVSTTVNVDGHVLAVSDNMFVHNNSKHGRRARRLDPSEGTPSYLEHATPCIKAISPSEGWTTGGATVIIIGDNFFDGLQVIFGTMLVWSELITPHAIRVQTPPRHIPGVVEVTLSYKSKQFCKGTPGRFIYTALNEPTIDYGFQRLQKVIPRHPGDPERLPKEVILKRAADLVEALYGMPHNNQEIILKRAADIAEALYSVPRNHNQLPALANTSVHAGMMGVNSFSGQLAVNVSEASQATNQGFTRNSSSVSPHGYVPSTTPQQTNYNSVTTSMNGYGSAAMSNLGGSPTFLNGSAANSPYAIVPSSPTMASSTSLPSNCSSSSGIFSFSPANMVSAVKQKSAFAPVVRPQTSPPPTCTSTNGNSLQAISGMIVPPM
With B1, the binding entry in assay [4] and in assay [5] was “binds” throughout.

B2: Myc-tagged E47 (E2A isoform) (protein, UniProt E9PVV2 1-649)
chain: MMNQSQRMAPVGSDKELSDLLDFSMMFPLPVANGKSRPASLGGTQFAGSGLEDRPSSGSWGSSDQNSSSFDPSRTYSEGAHFSDSHSSLPPSTFLGAGLGGKGSERNAYATFGRDTSVGTLSQAGFLPGELSLSSPGPLSPSGIKSSSQYYPSFPSNPRRRAADGGLADTQPKKVRKVPPGLPSSVYPPSSGDSYSRDAAAYPSAKTPSSAYPSPFYVADGSLHPSAELWSTPSQVGFGPMLGDGSSPLPLAPGSSSVGSGTFGGLQQQDRMGYQLHGSEVNGSLPAVSSFSAAPGTYSGTSGHTPPVSGAAAESLLGTRGTTASSSGDALGKALASIYSPDHSSNNFSPSPSTPVGSPQGLPGTSQWPRAGAPSALSPNYDAGLHGLSKMEDRLDEAIHVLRSHAVGTASDLHGLLPGHGALTTSFTGPMSLGGRHAGLVGGSHPEEGLTSGASLLHNHASLPSQPSSLPDLSQRPPDSYSGLGRAGTTAGASEIKREEKEDEEIASVADAEEDKKDLKVPRTRTSSTDEVLSLEEKDLRDRERRMANNARERVRVRDINEAFRELGRMCQLHLKSDKAQTKLLILQQAVQVILGLEQQVRERNLNPKAACLKRREEEKVSGVVGDPQLALSAAHPGLGEAHNPAGHL
Turning to B2, the binding entry in assay [4] and in assay [5] was “no binding” each time.

Source of the values: PMC4762780.
